According to article PMC7226405:
Results are given in words; binding and its absence hold for the method and conditions named. Binding seen in cells or lysates may run through a third protein. Some entries that bind do so weakly or less than the wild type.

The chains behind the UniProt entries cited, without tags or fusion partners. Where a name states a change or a piece, a line headed by the entry shows the natural chain unless it says otherwise.
UniProt P51149: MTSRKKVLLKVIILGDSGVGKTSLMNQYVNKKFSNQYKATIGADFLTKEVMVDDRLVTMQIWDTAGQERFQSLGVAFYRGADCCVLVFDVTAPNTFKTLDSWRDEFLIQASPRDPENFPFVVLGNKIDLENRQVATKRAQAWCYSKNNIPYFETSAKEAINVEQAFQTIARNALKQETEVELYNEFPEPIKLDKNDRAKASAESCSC
UniProt P15331: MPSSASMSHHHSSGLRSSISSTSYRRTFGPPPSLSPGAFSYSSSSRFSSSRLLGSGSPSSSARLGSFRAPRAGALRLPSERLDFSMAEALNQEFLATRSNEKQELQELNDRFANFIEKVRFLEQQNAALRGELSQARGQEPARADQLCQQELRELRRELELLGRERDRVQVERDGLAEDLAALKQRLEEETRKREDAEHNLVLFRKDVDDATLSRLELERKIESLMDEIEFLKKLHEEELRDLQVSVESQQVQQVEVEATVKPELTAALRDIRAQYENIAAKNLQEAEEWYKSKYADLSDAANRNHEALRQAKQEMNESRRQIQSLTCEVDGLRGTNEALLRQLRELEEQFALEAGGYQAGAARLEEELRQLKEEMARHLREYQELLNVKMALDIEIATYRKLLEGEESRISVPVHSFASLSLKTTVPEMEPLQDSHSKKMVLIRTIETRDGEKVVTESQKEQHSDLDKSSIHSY

Columns and labels:
Assay in all cases: co-IP; HA-tagged RAB7 proteins expressed in Neuro2A cells, cells lysed, immunoprecipitated with anti-HA affinity gel, Western blot with anti-peripherin and anti-HA antibodies
HA-tagged RAB7^K126R = HA-tagged RAB7^K126R (UniProt P51149)
HA-tagged RAB7^V162M = HA-tagged RAB7^V162M (UniProt P51149)
HA-tagged RAB7^wt = HA-tagged RAB7^wt (UniProt P51149)

binding (HA-tagged RAB7^K126R): binds | binding (HA-tagged RAB7^V162M): binds | binding (HA-tagged RAB7^wt): binds
Substance: peripherin (from UniProt P15331 1-475)
